In article doi:10.1101/2020.04.19.044891:
These are yes or no findings as the source states them, for the method shown. In cells and extracts the contact can be indirect.

Protein sequences, listed by entry. Tags and fused reporters are not part of them.
UniProt O43707: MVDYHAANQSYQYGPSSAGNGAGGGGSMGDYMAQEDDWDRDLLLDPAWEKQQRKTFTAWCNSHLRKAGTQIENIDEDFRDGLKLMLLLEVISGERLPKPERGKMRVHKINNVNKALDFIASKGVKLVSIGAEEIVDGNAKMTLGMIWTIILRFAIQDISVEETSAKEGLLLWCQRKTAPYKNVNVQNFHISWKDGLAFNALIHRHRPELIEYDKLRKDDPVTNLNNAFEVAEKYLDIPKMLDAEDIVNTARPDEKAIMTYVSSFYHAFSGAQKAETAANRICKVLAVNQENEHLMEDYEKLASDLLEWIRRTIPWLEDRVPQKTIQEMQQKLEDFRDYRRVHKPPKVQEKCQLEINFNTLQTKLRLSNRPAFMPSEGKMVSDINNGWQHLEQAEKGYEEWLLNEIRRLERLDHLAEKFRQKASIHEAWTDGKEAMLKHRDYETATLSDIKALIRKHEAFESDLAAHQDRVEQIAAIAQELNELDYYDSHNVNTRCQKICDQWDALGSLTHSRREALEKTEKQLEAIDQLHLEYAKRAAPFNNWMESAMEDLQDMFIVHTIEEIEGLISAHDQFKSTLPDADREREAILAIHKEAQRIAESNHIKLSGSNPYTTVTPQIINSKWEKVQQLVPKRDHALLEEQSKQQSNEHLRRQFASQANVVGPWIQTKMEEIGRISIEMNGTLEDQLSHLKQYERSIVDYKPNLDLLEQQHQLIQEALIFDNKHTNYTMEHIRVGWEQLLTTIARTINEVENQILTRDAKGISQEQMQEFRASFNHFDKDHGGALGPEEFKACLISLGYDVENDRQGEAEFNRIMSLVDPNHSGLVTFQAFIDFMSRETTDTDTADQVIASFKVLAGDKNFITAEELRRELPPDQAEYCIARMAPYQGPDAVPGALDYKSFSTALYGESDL

Biological target: T1, EpCAM (Epithelial Cell Adhesion Molecule) (human (endogenous in Caco2)) (UniProt P16422)
T1 sequence: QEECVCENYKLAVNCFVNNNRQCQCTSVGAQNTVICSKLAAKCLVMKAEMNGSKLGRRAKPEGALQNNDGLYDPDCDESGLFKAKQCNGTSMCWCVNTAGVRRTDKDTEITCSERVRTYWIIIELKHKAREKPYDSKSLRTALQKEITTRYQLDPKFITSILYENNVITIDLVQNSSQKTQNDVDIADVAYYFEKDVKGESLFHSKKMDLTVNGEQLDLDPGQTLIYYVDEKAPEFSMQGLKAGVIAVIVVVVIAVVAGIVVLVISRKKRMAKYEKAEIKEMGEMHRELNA
Assay: co-IP

Substance: α4-actinin (from UniProt O43707 1-911)
- binding: no binding
